Results deposited as PubChem BioAssay AID493246 (Drosophila RNAi Screening Center, 2011).
Assay: 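Identify essential fly genes by loss of cell viability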 (primary screen). System: Drosophila Kc and S2R+ cells. Reagents: long dsRNA against Drosophila genes. Measurement: 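Raw, unnormalised count of remaining cells in each well; per-plate z-scores of cell number underlie the calls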. Scale: Kc cell number and S2R+ cell number: higher = more cells remaining. Hit rule: 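Counted as a hit if cell number falls by a z-score of at least 3 within its plate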.
The deposit covers about 21,000 reagents; below is an unselected part of those with a known target gene and a result. Over the whole deposit, 429 (2%) got an active call. 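Values are raw and not normalised between plates; calls rest on per-plate z-scores that were not deposited.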 Not stated in the record: the amount of reagent, the time to read-out.

lgs [DRSC17152] → Kc cell number, rep 1: 5.01e5; S2R+ cell number, rep 1: 8.17e5; call: inactive
CG8840 [DRSC00713] → Kc cell number, rep 1: 1.61e6; Kc cell number, rep 2: 1.30e6; S2R+ cell number, rep 1: 1.11e6; S2R+ cell number, rep 2: 1.27e6; call: inactive
CG42335 [DRSC14597] → Kc cell number, rep 1: 1.30e6; Kc cell number, rep 2: 1.33e6; S2R+ cell number, rep 1: 1.09e6; S2R+ cell number, rep 2: 1.17e6; call: inactive
CG42335 [DRSC15892] → Kc cell number, rep 1: 1.35e6; Kc cell number, rep 2: 1.32e6; S2R+ cell number, rep 1: 1.04e6; S2R+ cell number, rep 2: 1.13e6; call: inactive
CG34300 [DRSC13977] → Kc cell number, rep 1: 1.42e6; Kc cell number, rep 2: 1.62e6; S2R+ cell number, rep 1: 1.16e6; S2R+ cell number, rep 2: 1.40e6; call: inactive
ATP6AP2 [DRSC16420] → Kc cell number, rep 1: 1.84e6; Kc cell number, rep 2: 1.92e6; S2R+ cell number, rep 1: 1.45e6; S2R+ cell number, rep 2: 1.68e6; call: inactive
Mettl2 [DRSC08398] → Kc cell number, rep 1: 1.38e6; Kc cell number, rep 2: 1.41e6; S2R+ cell number, rep 1: 1.12e6; S2R+ cell number, rep 2: 1.22e6; call: inactive
ste24b [DRSC07315] → Kc cell number, rep 1: 1.50e6; Kc cell number, rep 2: 1.57e6; S2R+ cell number, rep 1: 1.22e6; S2R+ cell number, rep 2: 1.35e6; call: inactive
Mnt [DRSC17894] → Kc cell number, rep 1: 5.37e5; S2R+ cell number, rep 1: 8.21e5; call: inactive
Mnt [DRSC18480] → Kc cell number, rep 1: 1.60e6; Kc cell number, rep 2: 1.56e6; S2R+ cell number, rep 1: 9.63e5; S2R+ cell number, rep 2: 1.15e6; call: inactive
Manf [DRSC14091] → Kc cell number, rep 1: 1.56e6; Kc cell number, rep 2: 1.62e6; S2R+ cell number, rep 1: 1.12e6; S2R+ cell number, rep 2: 1.19e6; call: inactive
unc79 [DRSC15746] → Kc cell number, rep 1: 1.52e6; Kc cell number, rep 2: 1.64e6; S2R+ cell number, rep 1: 1.13e6; S2R+ cell number, rep 2: 1.19e6; call: inactive
CG4577 [DRSC00658] → Kc cell number, rep 1: 1.39e6; Kc cell number, rep 2: 1.49e6; S2R+ cell number, rep 1: 1.05e6; S2R+ cell number, rep 2: 1.20e6; call: inactive

Only “S2R+ cell number, rep 1”, for 2 of the entries above:
Manf [DRSC14091] = 1.12e6
unc79 [DRSC15746] = 1.13e6

The list goes on:
CG42714 [DRSC08798] → Kc cell number, rep 1: 1.64e6; Kc cell number, rep 2: 1.70e6; S2R+ cell number, rep 1: 1.10e6; S2R+ cell number, rep 2: 1.26e6; call: inactive
CG8248 [DRSC07124] → Kc cell number, rep 1: 1.34e6; Kc cell number, rep 2: 1.40e6; S2R+ cell number, rep 1: 1.18e6; S2R+ cell number, rep 2: 1.22e6; call: inactive
CG15073 [DRSC06506] → Kc cell number, rep 1: 1.70e6; Kc cell number, rep 2: 1.73e6; S2R+ cell number, rep 1: 1.24e6; S2R+ cell number, rep 2: 1.38e6; call: inactive
Eip63E [DRSC08658] → Kc cell number, rep 1: 1.27e6; Kc cell number, rep 2: 1.37e6; S2R+ cell number, rep 1: 1.17e6; S2R+ cell number, rep 2: 1.18e6; call: inactive
ICA69 [DRSC11621] → Kc cell number, rep 1: 1.57e6; Kc cell number, rep 2: 1.60e6; S2R+ cell number, rep 1: 1.45e6; S2R+ cell number, rep 2: 1.47e6; call: inactive
Tpst [DRSC18989] → Kc cell number, rep 1: 1.52e6; Kc cell number, rep 2: 1.67e6; S2R+ cell number, rep 1: 1.06e6; S2R+ cell number, rep 2: 1.15e6; call: inactive
Tpst [DRSC19696] → Kc cell number, rep 1: 1.95e6; Kc cell number, rep 2: 1.76e6; S2R+ cell number, rep 1: 1.22e6; S2R+ cell number, rep 2: 1.35e6; call: inactive
Tpst [DRSC19723] → Kc cell number, rep 1: 1.76e6; Kc cell number, rep 2: 1.64e6; S2R+ cell number, rep 1: 1.07e6; S2R+ cell number, rep 2: 1.23e6; call: inactive
Tpst [DRSC19724] → Kc cell number, rep 1: 9.00e5; Kc cell number, rep 2: 8.45e5; S2R+ cell number, rep 1: 8.21e5; S2R+ cell number, rep 2: 8.67e5; call: active
